Data source: PubChem BioAssay AID504786 (Drosophila RNAi Screening Center, 2011)

Test: 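Positive regulators of HIF-driven reporter output in Drosophila cells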 (primary screen)
Cells: Drosophila S2 cells with a stable HIF luciferase reporter
Reagent: long dsRNA against Drosophila genes, about 0.2 µg dsRNA per well of a 384-well plate
Duration: three days of knock-down, then 20 h of DFO before reading
Treatment: desferrioxamine (DFO) at 100 µM, an iron chelator that mimics hypoxia, for 20 h
Read-out: 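HIF reporter luminescence in cells given 100 µM DFO for 20 h, using the mouse ldh-a hypoxia-response element, scored as per-plate z-scores; higher means greater loss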
Direction: z-score: higher = stronger loss of HIF reporter signal
The deposit covers about 21,000 reagents; this is a random part of those that have a named target and a result. 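Primary screen; positive scores mean lost reporter signal, so the sign may be inverted from the usual convention.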 Names joined by + are all predicted targets of the reagent.

The opening 4 entries, to show the layout:
| Target gene | amplicon | z-score, replicate 1 | z-score, replicate 2 | z-score, replicate 3 | z-score, replicate 4 |
| --- | --- | --- | --- | --- | --- |
| CG17239 | DRSC00492 | -0.1 | -0.5 | – | – |
| bib | DRSC03496 | -0.1 | -0.9 | – | – |
| slam | DRSC03240 | 0.2 | -0.3 | – | – |
| Asator | DRSC17136 | -0.2 | -0.2 | – | – |

Main list, from the first entry:
| Target gene | amplicon | z-score, replicate 1 | z-score, replicate 2 | z-score, replicate 3 | z-score, replicate 4 |
| --- | --- | --- | --- | --- | --- |
| CG17239 | DRSC00492 | -0.1 | -0.5 | – | – |
| bib | DRSC03496 | -0.1 | -0.9 | – | – |
| slam | DRSC03240 | 0.2 | -0.3 | – | – |
| Asator | DRSC17136 | -0.2 | -0.2 | – | – |
| CG2955 | DRSC00552 | -0.3 | -0.2 | – | – |
| Cad96Cb | DRSC14243 | 0.3 | -0.4 | – | – |
| Cad96Cb | DRSC14665 | -0.4 | -0.2 | – | – |
| CG3698 | DRSC11749 | -0.3 | -0.5 | – | – |
| Cpr51A | DRSC05969 | -0.2 | 0.2 | – | – |
| MED11 | DRSC10739 | 6.7 | 8.1 | – | – |
| CG31097 | DRSC14666 | -0.4 | -0.8 | – | – |
| CG12661 | DRSC17864 | -0.1 | -0.1 | – | – |
| Slc25A46a | DRSC20125 | -0.1 | -0.4 | – | – |
| CG14932 | DRSC02414 | -0.1 | -0.1 | – | – |
| RpL36A | DRSC03055 | 3.5 | 4.3 | – | – |
| CG34205 | DRSC04149 | -0.3 | -0.4 | – | – |
| eIF3d1 | DRSC16938 | 4.8 | 5.1 | – | – |
| Pino | DRSC00038 | -1.3 | -0.7 | – | – |
| Pino | DRSC00662 | -0.2 | -0.5 | – | – |
| SmydA-6 | DRSC07341 | -0.3 | 0 | – | – |
| CCDC53 | DRSC03056 | -0.1 | -0.3 | – | – |
| Nubpl | DRSC03725 | -0.1 | -0.2 | – | – |
| CG8778 | DRSC07264 | -0.3 | -0.9 | – | – |
| CG32069 + Blos2 | DRSC10621 | -0.5 | -0.6 | – | – |
| CG4830 | DRSC15657 | 3.1 | 2 | – | – |
| CG17568 | DRSC02628 | -0.3 | -0.3 | -0.5 | 0.1 |
| CG16953 | DRSC15167 | -0.3 | -0.2 | – | – |
| CG31344 | DRSC16069 | -0.3 | 1.2 | – | – |
| Acyp | DRSC01861 | 0 | -0.3 | – | – |
| Tace | DRSC16340 | -0.3 | 0.5 | – | – |
| ND-49L | DRSC14437 | 0 | -0.5 | – | – |
| RfC3 | DRSC03411 | -0.1 | -0.1 | – | – |
| CG32813 | DRSC17948 | -0.3 | 0.2 | – | – |
| CG11474 | DRSC04112 | -0.3 | -0.3 | – | – |
